Measurements reported in PubChem BioAssay AID743454 (Peter MacCallum Cancer Centre, 2014)
This is one part, drawn at random, of about 18,000 reagents tested. Over the whole deposit, 450 (2.5%) were called active. 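Single biological run; no consistent viability z cut-off exists, so the class columns, not z-scores, define the calls.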 A number with no mark means an inactive call. No sequences are given here.

- Purpose: 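Knock-downs lowering viability or raising caspase 3/7 activity in vorinostat-treated resistant cells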 (primary screen)
- Cells: human HCT116-VR colon cancer cells, selected for vorinostat resistance
- Reagents: siRNA pool against human genes, 40 nM siRNA pool
- Duration: vorinostat for 24 h, read-out about 72 h after transfection
- Challenge: vorinostat at 2.5 µM final
- Read-out: 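Two measures, CellTiter-Fluor viability and luminescent caspase 3/7 activity, each as fold change against same-plate mock wells, mean of duplicates, then screen-wide robust z-score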
- Direction: viability robust z-score: higher = more viable cells than screen typical; caspase robust z-score: higher = more caspase 3/7 activity than screen typical
- Call rule: 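a knock-down is a hit when classed RV1 or RV2 for lowered viability, or CA1 or CA2 for caspase activation; those lethal without drug were dropped; hits were retested singly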

| gene symbol | viability hit class | caspase hit class | viability robust z-score | caspase robust z-score |
| --- | --- | --- | --- | --- |
| FARS2 | no change | no change | 0.67 | 0.24 |
| SRBD1 | no change | no change | -0.02 | 3.58 |
| RGL2 | no change | no change | 0.64 | 0.12 |
| NPPA | no change | no change | -0.22 | 0.02 |
| INTS14 | no change | no change | 0.49 | 2.67 |
| CLPS | no change | no change | -0.12 | -1.07 |
| NEU1 | no change | no change | -0.2 | 3.33 |
| TMEM126A | no change | no change | -0.4 | -0.66 |
| NDUFAF6 | no change | no change | 1.22 | -0.37 |
| TNFSF8 | no change | no change | 0.46 | 0.87 |
| ELAVL2 | no change | no change | 0.78 | 0.25 |
| CCL16 | no change | no change | -0.7 | -0.68 |
| MGST3 | no change | no change | -2.11 | 3.46 |
| FOLH1B | no change | no change | -0.19 | -0.4 |
| PTPN3 | no change | no change | 0.25 | 0.29 |
| IMMP1L | no change | no change | 0.13 | 2.52 |
| TIMMDC1 | no change | no change | -0.49 | 0.06 |
| KYNU | no change | no change | 0.36 | -0.8 |
| UFM1 | no change | no change | 1.23 | -0.21 |
| PAICS | no change | no change | 0.69 | 2.4 |
| C14orf184 (retired record) | no change | no change | 0.92 | -0.75 |
| POLR3H | no change | no change | -1.47 | -0.34 |
| TWIST2 | no change | no change | -0.24 | 1.58 |
| WRNIP1 | no change | no change | 0.13 | -0.75 |
| CTF1 | no change | no change | 0.02 | -1.01 |
| SNX21 | no change | no change | -0.08 | -0.46 |
| MARK4 | no change | no change | -0.24 | -0.64 |
| TTC9B | no change | no change | 0.18 | 3.31 |
| CEP57 | no change | no change | -0.33 | -0.52 |
| ADCK1 | no change | no change | 0.23 | 0.27 |
| DHRS11 | no change | no change | 0.6 | -0.54 |
| SHQ1 | no change | no change | 0.96 | -0.34 |
| ALPP | no change | no change | 0.09 | 1.5 |
| PARN | no change | no change | 0.34 | -0.67 |
| PLGRKT | no change | no change | 0.06 | 0.52 |
| DEFB124 | no change | no change | 0.5 | -0.68 |
| GPAT4 | no change | no change | -0.16 | 0.12 |
| TYMSOS | no change | no change | -0.84 | -0.44 |
| PEX6 | no change | no change | -1.03 | 0.22 |
| TCF7L1 | no change | no change | 0.22 | -1.06 |
| MCRIP1 | no change | no change | -0.74 | -0.92 |
| AKR1C4 | no change | no change | 0.34 | 0.78 |
| ZC3H6 | no change | no change | 0.62 | -0.5 |
| HSPA14 | no change | no change | 0.29 | 1.29 |
| POU6F1 | no change | no change | 0.02 | -0.47 |
| EIF1 | no change | no change | 0.59 | -0.52 |
| PDP2 | no change | no change | -0.84 | -0.65 |
| SLC25A22 | no change | no change | 0.25 | 1.57 |
| EIF3I | RV2 (reduced viability) (active) | no change | -3.29 | -0.86 |
| CLDND2 | no change | no change | 1.5 | 1.77 |
| UBXN10 | no change | no change | -1.34 | 0.46 |
| H2AC7 | no change | no change | -1.46 | 0.03 |
| LILRB3 | no change | no change | -0.4 | 0.02 |
| CLDN5 | no change | no change | -1.02 | 0.18 |
| CLXN | no change | no change | -0.88 | -0.43 |
| ANKIB1 | no change | no change | -0.35 | -1.08 |
| RBM5 | no change | no change | -0.11 | -0.02 |
| ZNF524 | no change | no change | -0.2 | -0.54 |
| PPP1R10 | no change | no change | -1.44 | 3.59 |
| REP15 | no change | no change | -0.48 | -1.32 |
| ALDOB | no change | no change | -0.29 | -0.57 |
| SI | no change | no change | -1.31 | -1.02 |
| ADAMTSL3 | no change | no change | -0.36 | 0.01 |
| HTRA4 | no change | no change | 0.87 | 0.12 |
| METTL18 | no change | no change | -1.14 | -0.2 |
| ROPN1 | no change | no change | -1.21 | 1.07 |
| TOX3 | no change | no change | 0.12 | 0.67 |
| AFF1 | no change | no change | 0.32 | 1.43 |
| OR5B3 | no change | no change | 0.27 | 0.12 |
| STK32B | no change | no change | 0.11 | 0.88 |
| ARMC8 | no change | no change | 1.23 | -0.28 |
| BCL2L13 | no change | no change | 0.57 | -0.22 |
| NAB1 | no change | no change | -1.27 | 2.86 |

Entries listed so far whose gene name starts with N or n (4):
| gene symbol | viability hit class | caspase hit class | viability robust z-score | caspase robust z-score |
| --- | --- | --- | --- | --- |
| NPPA | no change | no change | -0.22 | 0.02 |
| NEU1 | no change | no change | -0.2 | 3.33 |
| NDUFAF6 | no change | no change | 1.22 | -0.37 |
| NAB1 | no change | no change | -1.27 | 2.86 |
